“And” between values parts separate entries of the source, which are not always exact repeats. Equal values may be shown once. Inconclusive results, whose numbers are uncertain, are shown with a selection of clear calls. For some assays here: Potencies beside an inconclusive call are fits to weak or partial responses and may not hold up. The source made the active and inactive calls. Unless noted, the call rests on the fitted dose curve; in most records, active means well fitted curve in the direction sought with a large enough effect; inconclusive means small, poorly fitted or top-dose-only effect, or another doubt; inactive means no such curve, though single readings can be large; an effect the other way counts as inactive or inconclusive.
Assays:
[1] = Quantitative High-Throughput drug screen in 47 multiple myeloma cell lines against the NCATS MIPE library collection: UTMC2_PLB cell viability assay (AID 1919868); conditions: CellTiter-Glo ATP luminescence, 48 h; viability (% of DMSO control): at 45.8 µM (top of the series); further: nearly all actives have a fitted effect of over 55% in size; further: potency means the concentration at half of the fitted maximal effect
Summary of the method: (§1)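 Viability after 48 h drug exposure was measured as ATP-dependent luminescence. Cells, 500 per well, sat at 37 °C under 5% CO2; DMSO wells set 100%, media-only wells 0%.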

[2] = Quantitative High-Throughput drug screen in 47 multiple myeloma cell lines against the NCATS MIPE library collection: PCM6_Riken cell viability assay (AID 1919870); conditions: CellTiter-Glo ATP, 48 h; viability (% of control): at 45.8 µM (top of the series); further: nearly all actives have a fitted effect of over 30% in size; further: potency means the concentration at half of the fitted maximal effect
Summary of the method: as §1

[3] = Quantitative High-Throughput drug screen in 47 multiple myeloma cell lines against the NCATS MIPE library collection: RPMI8226_ATCC cell viability assay (AID 1919871); further: nearly all actives have a fitted effect of over 30% in size; further: potency means the concentration at half of the fitted maximal effect
Summary of the method: as §1

[4] = Quantitative High-Throughput drug screen in 47 multiple myeloma cell lines against the NCATS MIPE library collection: OPM2_DSMZ cell viability assay (AID 1919872); further: nearly all actives have a fitted effect of over 30% in size; further: potency means the concentration at half of the fitted maximal effect
Summary of the method: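 Primary qHTS used for cherry-picking: cells at 500/well, library compounds for 48 h (37C, 5% CO2), luminescent ATP assay.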

[5] = Quantitative High-Throughput drug screen in 47 multiple myeloma cell lines against the NCATS MIPE library collection: KMS28BM_JCRB cell viability assay (AID 1919874); further: nearly all actives have a fitted effect of over 35% in size; further: potency means the concentration at half of the fitted maximal effect
Summary of the method: as §1

CRL-7250 = normal cell line; assay: Cytotoxic Profiling of Annotated Libraries Using Quantitative High-Throughput Screening (AID 1296008); conditions: Five cell lines viability, CellTiter-Glo ATP luminescence, 48-72 h; max response: stronger effect = lower value; further: nearly all actives have a fitted effect of over 60% in size; further: potency means the concentration at half of the fitted maximal effect; on max response: on the % scale 0 is the no-effect control and ±100 the full control effect
Summary of the method: (§2)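 Cells exposed to compounds for 48 or 72 hr at 37 degrees Celsius. Viability read as ATP-coupled luminescence with CellTiter-Glo after 10 min at room temperature.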

HEK293 = assay: as above; conditions: Five cell lines viability, CellTiter-Glo ATP luminescence, 48-72 h; max response: stronger effect = lower value
Summary of the method: as §2

[6] = qHTS for identification of novel therapeutic agents for treatment of microphthalmiaassociated transcription factor (MiT) renal cell carcinoma (RCC) (AID 1963991; calls by dose curve; further: potency means the concentration at half of the fitted maximal effect); conditions: TFE3-RCC UOK109 viability, CellTiter-Glo, 48 h; active = Z-AUC below -0.8 in all three lines
Summary of the method: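 Three TFE3-fusion RCC cell lines (UOK109, UOK124, UOK145), 500 cells/well, were exposed to the 1912-compound MIPE 4.0 library for 48 hours at 37 C. Viability was read by CellTiter-Glo luminescence, normalised to DMSO (100%) and empty wells (0%), with 11-concentration curve fits.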

KB-3-1 = assay: Cytotoxic Profiling of Annotated Libraries Using Quantitative High-Throughput Screening (AID 1296008); conditions: Five cell lines viability, CellTiter-Glo ATP luminescence, 48-72 h; max response: stronger effect = lower value; further: nearly all actives have a fitted effect of over 60% in size; further: potency means the concentration at half of the fitted maximal effect; on max response: on the % scale 0 is the no-effect control and ±100 the full control effect
Summary of the method: as §2

NIH3T3 = assay: as above; conditions: Five cell lines viability, CellTiter-Glo ATP luminescence, 48-72 h; max response: stronger effect = lower value
Summary of the method: as §2

HaCat = assay: as above; conditions: Five cell lines viability, CellTiter-Glo ATP luminescence, 48-72 h; max response: stronger effect = lower value
Summary of the method: as §2

[7] = Quantitative High-Throughput drug screen in 47 multiple myeloma cell lines against the NCATS MIPE library collection: KMS11_JCRBsus cell viability assay (AID 1919873); further: nearly all actives have a fitted effect of over 50% in size; further: potency means the concentration at half of the fitted maximal effect
Summary of the method: as §1

MCC-13 = assay: qHTS assay to identify novel small-molecules to repurpose for Merkel cell carcinoma treatment (AID 1296009); conditions: MCC and control cell lines, CellTiter-Glo viability, 72 h; series mostly up to 46 µM; further: on the % scale 0 is the no-effect control and ±100 the full control effect; nearly all actives have a fitted effect of over 60% in size
Summary of the method: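 Cells were incubated with compound for 72 hr at 37 degree celsius before CellTiter-Glo addition. Luminescence was normalized with no-cell wells as full cytotoxicity and DMSO as baseline.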

[8] = Quantitative High-Throughput drug screen in 47 multiple myeloma cell lines against the NCATS MIPE library collection: PE2_PLB cell viability assay (AID 1919869); further: nearly all actives have a fitted effect of over 35% in size; further: potency means the concentration at half of the fitted maximal effect
Summary of the method: as §1

## CCC(=O)O[C@]1(C(=O)CO)CC[C@H]2[C@@H]3CCC4=CC(=O)CC[C@]4(C)[C@@H]3CC[C@@]21C
[1]
  Potency: inactive
[2]
  Potency: inconclusive: 14.8 µM [cytotoxic, partial curve, poor fit]
[3]
  Potency: inactive
[4]
  Potency: inconclusive: 0.001 µM
[5]
  Potency: inactive
CRL-7250
  Potency: active: 13.2 µM
HEK293
  Potency: inconclusive: 37.2 µM [inhibitor, single point]

## OCCN1CCN(CCCN2c3ccccc3Sc3ccc(C(F)(F)F)cc32)CC1
[1]
  Potency: inconclusive: 29.6 µM [cytotoxic, partial curve, poor fit]
[6]
  Potency: inconclusive: 7.43 µM [falling, partial curve]
CRL-7250
  Potency: inconclusive: 29.6 µM [inhibitor, single point]
HEK293
  Potency: inconclusive: 4.69 µM [inhibitor, full curve, poor fit]
KB-3-1
  Potency: inconclusive: 18.7 µM [inhibitor, partial curve] and active: 20.6 µM
NIH3T3
  Potency: active: 13.2 µM and inconclusive: 33.5 µM [inhibitor, single point]

## COc1c(O)cc2c(c1O)[C@@H]1O[C@H](CO)[C@@H](O)[C@H](O)[C@H]1OC2=O
[1]
  Potency: inconclusive: 0.743 µM [rising, full curve, poor fit]
[4]
  Potency: inconclusive: 0.662 µM [cytotoxic, partial curve, poor fit]
[5]
  Potency: inactive
CRL-7250
  Potency: inconclusive: 37.2 µM [inhibitor, single point]
HEK293
  Potency: inconclusive: 33.2 µM [inhibitor, single point]

## Cc1cc2c(cc1C1(c3ccc(C(=O)O)cn3)CC1)C(C)(C)CCC2(C)C
[1]
  Potency: inconclusive: 0.0074 µM [rising, full curve, poor fit]
[2]
  Potency: inconclusive: 0.0833 µM [cytotoxic, partial curve, poor fit]
[4]
  Potency: inconclusive: 20.9 µM [cytotoxic, partial curve, poor fit]
[5]
  Potency: inconclusive: 0.0066 µM [cytotoxic, full curve, poor fit]
CRL-7250
  Potency: inconclusive: 18.4 µM [inhibitor, single point]
HaCat
  Potency: inconclusive: 29.1 µM [inhibitor, single point]
NIH3T3
  Potency: inconclusive: 23.1 µM [inhibitor, single point]
  outcome: inactive

## Cc1noc(-c2ccc(CSCCC(=O)O)cc2)c1NC(=O)OC(C)c1ccccc1Cl (stereo not drawn)
[1]
  Potency: inactive
[2]
  Potency: inactive
[3]
  Potency: inactive
[4]
  Potency: inactive
[5]
  Potency: inactive
CRL-7250
  Potency: inconclusive: 2.35 µM [inhibitor, full curve]
NIH3T3
  Potency: inconclusive: 14.8 µM [inhibitor, partial curve]

## N[C@@H](CC(=O)N1CCn2c(nnc2C(F)(F)F)C1)Cc1cc(F)c(F)cc1F
[1]
  Potency: inconclusive: 46.9 µM [cytotoxic, partial curve, poor fit]
[2]
  Potency: inactive
[7]
  Potency: inactive
[5]
  Potency: active: 4.69 µM
CRL-7250
  max response: inactive: -4.16%

## NCCS(=O)(=O)O
[1]
  Potency: inconclusive: 14.8 µM [cytotoxic, partial curve, poor fit]
[2]
  Potency: inactive
[3]
  Potency: inconclusive: 0.001 µM [cytotoxic]
[5]
  Potency: inconclusive: 37.2 µM [rising, single point]
CRL-7250
  max response: inactive: -1.77% and inactive: -3.17%
HaCat
  outcome: inactive

## COc1ccc2nc3cc(Cl)ccc3c(Nc3cc(CN4CCCC4)c(O)c(CN4CCCC4)c3)c2n1
[1]
  Potency: inconclusive: 33.2 µM [cytotoxic, partial curve, poor fit]
[4]
  Potency: inconclusive: 23.5 µM [cytotoxic, single point]
[6]
  Potency: inconclusive: 26.4 µM [falling, single point]
CRL-7250
  Potency: inconclusive: 37.2 µM [inhibitor, single point]
KB-3-1
  Potency: inconclusive: 33.2 µM [inhibitor, single point]
MCC-13
  Potency: inactive

## CC(C)[C@H](N)C(=O)OCCOCn1cnc2c(=O)[nH]c(N)nc21
[1]
  Potency: inconclusive: 0.105 µM [rising, full curve, poor fit]
[8]
  Potency: inactive
[2]
  Potency: inactive
[7]
  Potency: inconclusive: 33.2 µM [cytotoxic, single point]
[5]
  Potency: inconclusive: 37.2 µM [cytotoxic, single point]
CRL-7250
  max response: inactive: -3.66% and inactive: 1.07%
MCC-13
  Potency: inactive

## CN(CCOc1ccc(CC2SC(=O)NC2=O)cc1)c1ccccn1 (stereo not drawn)
[1]
  Potency: inconclusive: 1.18 µM [rising, full curve, poor fit]
[8]
  Potency: inactive
[2]
  Potency: inactive
[3]
  Potency: inconclusive: 18.7 µM [cytotoxic, partial curve, poor fit]
CRL-7250
  Potency: inconclusive: 37.2 µM [inhibitor, single point]
NIH3T3
  Potency: inconclusive: 26.6 µM [inhibitor, single point]

## Cc1cc(=O)c2c(O)c3c(O)cc(=O)c4c3c3c(cc(O)c1c23)C(C)(C)C=4O
[4]
  Potency: active: 13.2 µM
[7]
  Potency: inconclusive: 16.6 µM [cytotoxic, partial curve, poor fit]
[5]
  Potency: inconclusive: 33.2 µM [cytotoxic, single point]
[6]
  Potency: inconclusive: 16.6 µM [falling, partial curve]
CRL-7250
  Potency: active: 3.66 µM and active: 13.2 µM
KB-3-1
  Potency: active: 11.6 µM and active: 23.5 µM
NIH3T3
  Potency: inconclusive: 14.6 µM [inhibitor, partial curve, poor fit]

## CN(C)C(=N)N=C(N)N
[1]
  Potency: inconclusive: 0.001 µM [cytotoxic]
[2]
  Potency: inconclusive: 0.0013 µM [cytotoxic, full curve, poor fit]
[4]
  Potency: inactive
CRL-7250
  Potency: inconclusive: 26.6 µM [inhibitor, single point]

## CC(C)n1cnc2c(NCCCCCCNC(=O)OC(C)(C)C)nc(NCCO)nc21
[1]
  Potency: inconclusive: 10.5 µM [cytotoxic, partial curve, poor fit]
[3]
  Potency: active: 14.8 µM
[7]
  Potency: inconclusive: 16.6 µM [cytotoxic, partial curve, poor fit]
[5]
  Potency: inconclusive: 16.6 µM [cytotoxic, partial curve, poor fit]
[6]
  Potency: inconclusive: 23.5 µM [falling, single point]
CRL-7250
  Potency: inconclusive: 37.2 µM [inhibitor, single point]
KB-3-1
  Potency: inconclusive: 16.6 µM [inhibitor, partial curve]

## OC(c1cc(C(F)(F)F)nc2c(C(F)(F)F)cccc12)C1CCCCN1 (stereo not drawn)
[1]
  Potency: active: 20.9 µM
[3]
  Potency: inconclusive: 4.69 µM [cytotoxic, partial curve, poor fit]
[4]
  Potency: active: 23.5 µM
[5]
  Potency: inconclusive: 29.6 µM [cytotoxic, single point]
[6]
  Potency: inconclusive: 18.7 µM [falling, partial curve]
CRL-7250
  Potency: inconclusive: 4.18 µM [inhibitor, partial curve, poor fit]
KB-3-1
  Potency: inconclusive: 33.2 µM [inhibitor, single point]
NIH3T3
  Potency: inconclusive: 37.2 µM [inhibitor, single point]

## CCCCCCCCCCCCCC(=O)N[C@H](CO)[C@H](O)c1ccc([N+](=O)[O-])cc1
[1]
  Potency: active: 18.7 µM
[2]
  Potency: active: 20.9 µM
[3]
  Potency: inconclusive: 37.2 µM [cytotoxic, single point]
[5]
  Potency: inconclusive: 37.2 µM [cytotoxic, single point]
[6]
  Potency: inconclusive: 26.4 µM
CRL-7250
  Potency: active: 9.35 µM
HaCat
  Potency: inconclusive: 37.2 µM [inhibitor, single point]
NIH3T3
  Potency: inconclusive: 26.4 µM [inhibitor, single point]

## c1ccc(-c2nn3c(c2-c2ccnc4cc(OCCN5CCOCC5)ccc24)CCC3)nc1
[1]
  Potency: inconclusive: 7.43 µM [rising, partial curve, poor fit]
[4]
  Potency: inconclusive: 33.2 µM [cytotoxic, single point]
[7]
  Potency: inconclusive: 5.26 µM [cytotoxic, partial curve, poor fit]
CRL-7250
  Potency: inconclusive: 18.7 µM [inhibitor, partial curve]
HaCat
  max response: inactive: -14.5%
NIH3T3
  Potency: active: 5.26 µM

## Cc1onc(-c2ccccc2)c1C(=O)N[C@@H]1C(=O)N2[C@@H](C(=O)O)C(C)(C)S[C@@H]12
[1]
  Potency: inconclusive: 0.105 µM [cytotoxic, full curve, poor fit]
[8]
  Potency: inconclusive: 0.0021 µM [cytotoxic, full curve, poor fit]
[7]
  Potency: inconclusive: 7.43 µM [cytotoxic, single point]
CRL-7250
  max response: inactive: -3.26%

## NC(=O)c1cnc(-c2ccc(C3(N)CCC3)cc2)c(-c2ccccc2)c1
[3]
  Potency: inconclusive: 13.2 µM [cytotoxic, partial curve]
[7]
  Potency: inconclusive: 20.9 µM [cytotoxic, partial curve]
[5]
  Potency: inconclusive: 20.9 µM [cytotoxic, partial curve]
[6]
  Potency: inconclusive: 18.7 µM [falling, partial curve, poor fit]
CRL-7250
  Potency: inconclusive: 37.2 µM [inhibitor, single point] and inconclusive: 1.46 µM [inhibitor, full curve, poor fit]
KB-3-1
  Potency: inconclusive: 23.1 µM [inhibitor, single point]

From PubChem BioAssay (NCATS)
